The results in this text go back to PMC7819943, “Rice protein-binding microarrays: a tool to detect cis-acting elements near promoter regions in rice”.

This is one part of the list.

This assay deals with T1, OsSMF1 (Oryza sativa, UniProt Q6ZLB0 1-436).
T1 sequence: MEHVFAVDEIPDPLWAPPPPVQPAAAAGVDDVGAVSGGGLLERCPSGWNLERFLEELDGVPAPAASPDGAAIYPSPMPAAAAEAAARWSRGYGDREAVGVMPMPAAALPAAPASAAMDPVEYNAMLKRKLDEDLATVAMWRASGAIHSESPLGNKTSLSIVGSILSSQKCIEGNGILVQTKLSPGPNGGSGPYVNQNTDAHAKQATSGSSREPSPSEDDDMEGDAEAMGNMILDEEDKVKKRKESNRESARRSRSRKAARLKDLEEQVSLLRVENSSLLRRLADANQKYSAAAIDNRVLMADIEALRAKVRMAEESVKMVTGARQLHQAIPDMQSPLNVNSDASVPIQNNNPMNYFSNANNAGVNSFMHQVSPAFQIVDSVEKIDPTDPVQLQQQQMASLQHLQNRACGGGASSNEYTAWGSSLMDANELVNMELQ
The assay is described as follows: protein-binding microarray (RPBM); PBS, 2% BSA, 51.3 ng/ul salmon testes DNA, 50 uM zinc acetate, 200 nM TF, 25 C, 1 h; high values mean tight binding. The note with it: protein: recombinant; tags: N-terminal polyhistidine and DsRed monomer fusion (pET32a); chain copies: 2; label: CyDye5-dUTP incorporated in the synthesized complementary strand; 3' TTTTT single-stranded linker to array surface; dsDNA, one strand shown. In short, it runs like this: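 Binding signal is defined as the fluorescence intensity of each feature in arbitrary units, read on an Axon 4000B scanner. Transcription factors with N-terminal polyhistidine and DsRed fusions came from E. coli BL21-CodonPlus and were purified on Ni–NTA. They were incubated at 200 nM for 1 h at 25 °C on a custom Agilent array that had been made double-stranded with Cy5-dUTP, with 50 µM zinc acetate present, and the array was washed.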
For “TCGCACACCACAACACACACCTGCCGGCCCCATCACCCCGCGGAGTCACCTAGTGCAG”, the binding signal was 3190 fluorescence intensity (a.u.). For “ATCGAGGTATTCAAAGTGAACTTATTTTCCATACGTATACCGGAGTCACCTAGTGCAG” the value was 5350 fluorescence intensity (a.u.); for “ATCTGTTTTATAGTATGTCATATCATTCACAACATTGGGTCGGAGTCACCTAGTGCAG”, 4120 fluorescence intensity (a.u.). Take “TTAGAGATGCTGCGTTGTCGTGAGTACTCTCTTTCCTTCGCGGAGTCACCTAGTGCAG”: the binding signal is 3680 fluorescence intensity (a.u.). On to “CCGCTATGCCGCCACGTCTTCCACAATGGAAAGGCCCATACGGAGTCACCTAGTGCAG”, for which the binding signal is 7280 fluorescence intensity (a.u.).

Regarding “AAACATAAGATGCCAAGTGGCATATCTCTACTGTTTTGCCCGGAGTCACCTAGTGCAG”, the binding signal was 3950 fluorescence intensity (a.u.). Under “GAGGAGGAACGATGGTGGCTCATGGAGAAAGAGCGTTACGCGGAGTCACCTAGTGCAG” stands 22600 fluorescence intensity (a.u.); under “ACGTACCAACGCGCGCACCGGAGCTTTGCACACGTATACGCGGAGTCACCTAGTGCAG”, 5940 fluorescence intensity (a.u.). For “CTGTCTACTAGTAGTACTACTGCTACCTGCCCCTGTCAGTCGGAGTCACCTAGTGCAG” the value was 8850 fluorescence intensity (a.u.); for “AAGGTAGAGGAGGAGAAGTTGGGGTTTGGGAGGGCCAGCGCGGAGTCACCTAGTGCAG”, 3290 fluorescence intensity (a.u.). Under “GGTATGACTTGCTGAGTACAGTGGGTAGTACTCAGTCTTGCGGAGTCACCTAGTGCAG” stands 3210 fluorescence intensity (a.u.); under “AGCCAAAGATTTATGCGAACAAGAACGAGCTGACGAATCACGGAGTCACCTAGTGCAG”, 3700 fluorescence intensity (a.u.); under “CCGGCGGCGGTGGCCGTGACGGTGGCGACGGCCATGCTGACGGAGTCACCTAGTGCAG”, 3240 fluorescence intensity (a.u.). On to “GTGCCCGGTATCGACAGTTGGAGGATGAATTATACCCGGTCGGAGTCACCTAGTGCAG”, for which the binding signal is 37500 fluorescence intensity (a.u.).

For the sequence “AAAATATGACTAACTATGACAGGTATGAACGGTGAGCTGCCGGAGTCACCTAGTGCAG”, the binding signal was 3510 fluorescence intensity (a.u.). Consider “AAGCCTAAAACCTCCCCATCCACGTCACCCATCCTCCTCCCGGAGTCACCTAGTGCAG”, for which the binding signal was 22300 fluorescence intensity (a.u.). Under “TGGCAAGTCATCGTCCAGCTAAGCTGTATCTATCCGTAGTCGGAGTCACCTAGTGCAG” stands 4110 fluorescence intensity (a.u.); under “CGGCAAGTGATAGGGTTGTATCTAGGGTTAGTACTACTGGCGGAGTCACCTAGTGCAG”, 4260 fluorescence intensity (a.u.). For “ATAGAGTAAGTTGTTCCCCACTAACGTCAGCTAGCGAGCGCGGAGTCACCTAGTGCAG” the value was 5400 fluorescence intensity (a.u.); for “AGATCCATGTCAGCATATTTTCCTACTTGGAAGAGATTAACGGAGTCACCTAGTGCAG”, 6110 fluorescence intensity (a.u.); for “CTCGCGGGATCTCGCGTGTTTCGGTGGAGGGGATTGCGGCCGGAGTCACCTAGTGCAG”, 3430 fluorescence intensity (a.u.). For “CAGGAGGTGGAACTCCGAGAGGCTGGACCTGGACGCGGTGCGGAGTCACCTAGTGCAG” the value was 25200 fluorescence intensity (a.u.); for “TAGTAACCTCTTTCTTCTTCCATCCATCGCCGCCGCCGCCCGGAGTCACCTAGTGCAG”, 8370 fluorescence intensity (a.u.).
